# Results reported in PMC5996148.
# Amino acid sequences for entries named in this document (tags omitted). A change or cut given only in a name is not applied to a line headed by its entry.
# UniProt Q15527: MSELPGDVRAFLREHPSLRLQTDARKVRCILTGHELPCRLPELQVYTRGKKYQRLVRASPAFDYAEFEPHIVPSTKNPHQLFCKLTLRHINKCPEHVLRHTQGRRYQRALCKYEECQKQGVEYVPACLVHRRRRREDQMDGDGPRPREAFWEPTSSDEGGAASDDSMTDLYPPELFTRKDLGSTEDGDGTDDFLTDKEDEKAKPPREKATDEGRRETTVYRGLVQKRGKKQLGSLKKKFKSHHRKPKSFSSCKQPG
# Where “and” joins values, the source holds several entries; their conditions need not be identical. Identical values can stand only once. Some of the results follow. For some assays here: The exact form of the protein is not confirmed.
# Columns and labels:
# Assay in all cases: protein microarray (ProtoArray v5.0), streptavidin-Alexa Fluor 647
# Conditions in all cases: 3'-biotin; 20 mM Tris (pH 7.5), 5 mM MgCl2, 100 mM KCl, 0.1% Tween-20, A/T-rich and random oligonucleotide blockers; temperature not stated; high values mean tight binding
# STX7 (human) = test system: STX7 (human)
# STYX (human) = test system: STYX (human)
# SULF1 (human) = test system: SULF1 (human)
# SULT2B1 (human) = test system: SULT2B1 (human)
# SURF2 = SURF2 (UniProt Q15527)
# SURF4 (human) = test system: SURF4 (human)
# SURF5 (human) = test system: SURF5 (human)
# SUSD4 (human) = test system: SUSD4 (human)
# [1] = test system: SWI/SNF-related matrix-associated actin-dependent regulator of chromatin subfamily D member 2 (human)
# SYCE1 (human) = test system: SYCE1 (human)
# SYMPK (human) = test system: SYMPK (human)
# SYNGR2 (human) = test system: SYNGR2 (human)
# SYNGR4 (human) = test system: SYNGR4 (human)
# SYTL2 = molecular target: T1, SYTL2 (UniProt Q9HCH5)
# T1 sequence: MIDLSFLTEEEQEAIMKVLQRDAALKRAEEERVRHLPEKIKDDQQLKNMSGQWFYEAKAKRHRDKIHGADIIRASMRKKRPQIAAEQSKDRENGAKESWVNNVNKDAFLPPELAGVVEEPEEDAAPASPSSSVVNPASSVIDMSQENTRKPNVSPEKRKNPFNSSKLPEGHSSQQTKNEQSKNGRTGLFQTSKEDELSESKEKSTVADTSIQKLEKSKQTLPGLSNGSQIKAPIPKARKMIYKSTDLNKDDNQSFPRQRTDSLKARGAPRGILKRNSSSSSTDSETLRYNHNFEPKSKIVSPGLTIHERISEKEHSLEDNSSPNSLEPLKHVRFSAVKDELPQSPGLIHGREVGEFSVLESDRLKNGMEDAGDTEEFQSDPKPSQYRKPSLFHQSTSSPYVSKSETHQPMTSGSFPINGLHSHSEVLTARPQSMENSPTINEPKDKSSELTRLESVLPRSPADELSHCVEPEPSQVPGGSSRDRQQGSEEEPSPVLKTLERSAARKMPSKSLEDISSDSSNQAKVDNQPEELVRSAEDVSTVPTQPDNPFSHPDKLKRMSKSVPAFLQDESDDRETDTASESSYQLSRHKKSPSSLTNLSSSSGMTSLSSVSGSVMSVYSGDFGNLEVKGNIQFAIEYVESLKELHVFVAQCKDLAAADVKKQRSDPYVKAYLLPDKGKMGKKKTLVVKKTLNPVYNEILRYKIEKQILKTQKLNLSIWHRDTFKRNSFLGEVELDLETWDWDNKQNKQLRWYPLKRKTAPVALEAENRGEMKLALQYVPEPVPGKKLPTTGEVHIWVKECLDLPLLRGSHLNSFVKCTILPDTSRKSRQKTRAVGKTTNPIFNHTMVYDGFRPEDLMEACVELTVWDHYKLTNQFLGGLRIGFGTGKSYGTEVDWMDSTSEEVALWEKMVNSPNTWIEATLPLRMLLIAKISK
# SYVN1 (human) = test system: SYVN1 (human)
# [2] = test system: Scavenger receptor cysteine-rich domain-containing protein LOC284297 (human)
# Secretagogin (human) = test system: Secretagogin (human)
# [3] = test system: Selenium-binding protein 1 (human)
# Selenoprotein P (human) = test system: Selenoprotein P (human)
# Septin-2 (human) = test system: Septin-2 (human)
sequence,measurement,setting,value
GGGGACAGGGGTATGGGGAGGGG [G4-3 biotinylated (CtG)],binding signal,STX7 (human),-0.309 z-score
same,binding signal,STYX (human),-0.316 z-score
same,binding signal,SULF1 (human),-0.283 z-score
same,binding signal,SULT2B1 (human),-0.335 z-score
same,binding signal,SURF2,4.37 z-score
same,binding signal,SURF4 (human),-0.336 z-score
same,binding signal,SURF5 (human),-0.331 z-score
same,binding signal,SUSD4 (human),-0.319 z-score
same,binding signal,[1],-0.336 z-score
same,binding signal,SYCE1 (human),-0.323 z-score and -0.316 z-score
same,binding signal,SYMPK (human),-0.323 z-score
same,binding signal,SYNGR2 (human),-0.326 z-score
same,binding signal,SYNGR4 (human),-0.326 z-score
same,binding signal,SYTL2,3.17 z-score
same,binding signal,SYVN1 (human),-0.311 z-score
same,binding signal,[2],-0.337 z-score
same,binding signal,Secretagogin (human),-0.34 z-score
same,binding signal,[3],-0.329 z-score
same,binding signal,Selenoprotein P (human),-0.328 z-score
same,binding signal,Septin-2 (human),-0.305 z-score
